Test results published in patent CN117567617A.
Results are given in words; binding and its absence hold for the method and conditions named. Binding calls can cover weak binding; strength is not graded here.

Assays:
[1] = target: CLDN18.2 (species not stated); assay: flow cytometry on overexpressing cells (Figure 1)
[2] = target: CLDN18.2 (species not stated); assay: flow cytometry titration and affinity measurement (Figure 2, Table 1)
[3] = target: CLDN18.2 (species not stated); assay: flow cytometry on stably transfected CHO cells (cell pool)

Measured: binding

B1: 全人源抗CLDN18.2抗体2A2 (CLDN-BC-2A2-hH1) (antibody, V domains shown)
VH: QVQLQQWGPGLVKPSQTLSLTCTVSGGSISSVGYYWSWIRQHPGQGLEWVGYIYYSGGTYYNPSLKSRVTISLDTSKNQFSLKLTSVTAADTAVYYCASYGSVSPYYYYYGMDVWGQGTTVTVSS
VL: DIVMTQSPSSVSASVGDRVTITCRASQGISSWLAWYQQKPGKAPNLLISAASSLQSGVPSRFSGNGSGTDFTLTISSLQPEDFASYYCQQANSFPITFGQGTRLEIK
binds: all assays above
